Experimental data reported in publication PMC12380674.
These are yes or no findings as the source states them, for the method shown. In cells and extracts the contact can be indirect. Some results given as binding are weak or reduced against the parent protein; the word gives no strength.

Amino acid sequences for entries named in this document (tags omitted).
UniProt P35609: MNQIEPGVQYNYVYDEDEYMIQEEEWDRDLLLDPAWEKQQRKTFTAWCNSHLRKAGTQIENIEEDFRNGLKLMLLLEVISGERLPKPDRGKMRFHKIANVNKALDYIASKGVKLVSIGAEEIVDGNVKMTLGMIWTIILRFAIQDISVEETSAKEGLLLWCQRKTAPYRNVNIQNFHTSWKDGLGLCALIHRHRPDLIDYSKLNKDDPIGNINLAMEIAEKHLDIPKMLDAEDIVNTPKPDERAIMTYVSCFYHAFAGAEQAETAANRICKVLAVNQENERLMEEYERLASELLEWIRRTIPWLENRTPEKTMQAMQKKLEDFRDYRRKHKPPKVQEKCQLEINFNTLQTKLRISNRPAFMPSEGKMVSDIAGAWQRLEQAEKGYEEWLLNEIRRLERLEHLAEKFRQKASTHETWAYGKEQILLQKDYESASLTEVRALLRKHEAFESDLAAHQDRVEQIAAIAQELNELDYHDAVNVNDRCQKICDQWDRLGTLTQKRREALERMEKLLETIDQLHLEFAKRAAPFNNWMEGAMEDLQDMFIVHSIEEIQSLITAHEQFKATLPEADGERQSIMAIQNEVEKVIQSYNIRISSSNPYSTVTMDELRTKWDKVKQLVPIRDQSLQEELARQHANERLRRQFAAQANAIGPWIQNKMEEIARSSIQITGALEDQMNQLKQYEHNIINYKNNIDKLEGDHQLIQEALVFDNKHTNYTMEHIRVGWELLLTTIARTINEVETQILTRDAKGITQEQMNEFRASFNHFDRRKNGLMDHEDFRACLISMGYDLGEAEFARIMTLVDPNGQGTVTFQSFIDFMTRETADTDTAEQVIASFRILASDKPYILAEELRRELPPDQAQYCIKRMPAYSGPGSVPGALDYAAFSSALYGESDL

Biological target: α-actinin-2 (ACTN2) (UniProt P35609)
Assay: pull-down; GST pull-down (Figure 9D); bait, source of the proteins and conditions not told

- binding: binds
B1: PDZ and LIM domain protein 1 (PDLIM1) (protein, UniProt O00151 1-329)
chain: MTTQQIDLQGPGPWGFRLVGGKDFEQPLAISRVTPGSKAALANLCIGDVITAIDGENTSNMTHLEAQNRIKGCTDNLTLTVARSEHKVWSPLVTEEGKRHPYKMNLASEPQEVLHIGSAHNRSAMPFTASPASSTTARVITNQYNNPAGLYSSENISNFNNALESKTAASGVEANSRPLDHAQPPSSLVIDKESEVYKMLQEKQELNEPPKQSTSFLVLQEILESEEKGDPNKPSGFRSVKAPVTKVAASIGNAQKLPMCDKCGTGIVGVFVKLRDRHRHPECYVCTDCGTNLKQKGHFFVEDQIYCEKHARERVTPPEGYEVVTVFPK
